Values quoted from earlier work, collected in PMC3322284 (Journal of Pharmacological and Toxicological Methods, 2012).

Settings: humans; ref Fenner et al., 2009; cited from earlier work

SMILES: CCCCc1oc2ccccc2c1C(=O)c1cc(I)c(OCCN(CC)CC)c(I)c1 [Amiodarone]
- [I] peak plasma concentration of drug at steady state: 2.2 µM
